# Data from PMC7671478, “Structure of the helicase core of Werner helicase, a key target in microsatellite instability cancers”.
# Chains of the proteins cited; added tags and fusions are not shown. Residues count along the entry.
# WRN helicase core (517–1,093) (Q14191, residues 517-1093): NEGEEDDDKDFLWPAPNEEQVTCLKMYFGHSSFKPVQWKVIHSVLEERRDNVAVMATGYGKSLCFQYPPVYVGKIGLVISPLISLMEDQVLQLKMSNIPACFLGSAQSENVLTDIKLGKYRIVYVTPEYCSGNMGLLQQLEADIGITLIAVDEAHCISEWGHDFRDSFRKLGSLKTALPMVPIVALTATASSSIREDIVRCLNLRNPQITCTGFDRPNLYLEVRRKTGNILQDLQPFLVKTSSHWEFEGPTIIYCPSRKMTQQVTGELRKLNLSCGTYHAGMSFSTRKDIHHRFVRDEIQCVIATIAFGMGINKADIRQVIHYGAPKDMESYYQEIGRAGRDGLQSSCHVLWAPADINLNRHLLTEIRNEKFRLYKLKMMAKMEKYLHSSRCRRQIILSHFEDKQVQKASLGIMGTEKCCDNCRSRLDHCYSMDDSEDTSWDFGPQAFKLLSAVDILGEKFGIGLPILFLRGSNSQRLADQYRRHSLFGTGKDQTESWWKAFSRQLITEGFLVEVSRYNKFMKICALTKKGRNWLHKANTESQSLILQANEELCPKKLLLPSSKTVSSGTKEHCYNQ
# WRN helicase (residues 531–950) (Q14191, residues 531-950): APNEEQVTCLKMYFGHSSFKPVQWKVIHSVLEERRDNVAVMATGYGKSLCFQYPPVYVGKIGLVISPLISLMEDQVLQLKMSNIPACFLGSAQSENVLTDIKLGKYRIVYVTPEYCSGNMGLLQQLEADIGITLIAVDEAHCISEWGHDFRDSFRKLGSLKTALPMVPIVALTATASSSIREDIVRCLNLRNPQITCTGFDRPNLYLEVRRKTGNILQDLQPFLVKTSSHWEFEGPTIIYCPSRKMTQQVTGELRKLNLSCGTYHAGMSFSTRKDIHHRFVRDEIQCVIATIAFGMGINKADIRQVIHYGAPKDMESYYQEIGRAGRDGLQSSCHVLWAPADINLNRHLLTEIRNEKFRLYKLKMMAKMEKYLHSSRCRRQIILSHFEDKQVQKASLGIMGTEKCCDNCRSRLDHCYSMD
# WRN HRDC domain (1,142–1,242) (Q14191, residues 1142-1242): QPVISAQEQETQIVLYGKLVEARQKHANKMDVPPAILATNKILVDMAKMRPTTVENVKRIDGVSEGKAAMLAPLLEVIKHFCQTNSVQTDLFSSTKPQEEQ
# Results are given in words; binding and its absence hold for the method and conditions named. Some binding calls cover weakened binding; strength is not graded here.
# Assays:
# [1] = target: WRN HRDC domain (1,142–1,242) (human) (UniProt Q14191); assay: NMR titration; 1H-15N SoFast HMQC of 30 μM 15N-labelled WRN HRDC without or with 250 μM unlabelled WRN helicase (531–950); Hepes 50 mM pH 7.5, NaCl 300 mM, ATP 1 mM, MgSO4 5 mM, TCEP 1 mM, D2O 10%; 298 K; both purified
# [2] = target: WRN helicase core (517–1,093) (human) (UniProt Q14191); assay: crystal structure; WRN (517–1,093) co-crystallised with ADP, AlCl3, NaF and MgCl2; 1 M Na Acetate, 0.1 M cacodylate pH 6.5; 2.2 Å; contents of the asymmetric unit; both purified
binding [1],binding [2],Substance
binds weakly,,WRN helicase (residues 531–950) (from UniProt Q14191 531-950) (domain or fragment)
,no binding,"WRN helicase core (517–1,093) (from UniProt Q14191 517-1093) (domain or fragment)"
